Screen size: about 320,000 compounds; about 2,100 (0.66%) were called active. The inconclusive results got no clear call from the source; some entries with a clear call stand among them for comparison. Calls follow the shape of the dose curve; as a rule, active = well fitted inhibition curve with a large enough effect in the signal ratio, with a control signal flat (not every such curve was filed as active); inconclusive = small, poorly fitted or top-dose-only effect, or effect the other way, or a change in a side signal; inactive = flat fitted curve, though single readings scatter; the % refers to the signal ratio. Potencies of inconclusive entries are doubtful fits and often do not repeat.
Test: qHTS Assay for Lipid Storage Modulators in Drosophila S3 Cells
Conditions: BODIPY lipid droplet fluorescence, 18-24 h, cells fed with added oleic acid; lipid storage change, negative = inhibition: at 46.1 µM (top of the series) unless noted
In short: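 Drosophila S3 cells loaded with oleic acid (400 uM, as added) and compounds at several concentrations; lipid droplets imaged by 488-nm laser-scanning cytometry, 500–530 nm intensity and object ratio to cell channel. Percent activity normalized to 20 uM Triacsin C.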
% is scaled to controls: 0 for no effect and ±100 for the full control effect; potency is read from the fitted curve at half-maximal effect.

Compound	Potency	lipid storage change, negative = inhibition	outcome
C=CCNC(=O)COC(=O)c1ccc(C)c(NC(=O)c2ccco2)c1	inconclusive: 29.1 µM [activator, single point]	–	–
O=C(NCCN1CCOCC1)C(=O)NCC1OCCN1S(=O)(=O)c1ccccc1 (configuration not stated)	–	inconclusive: -100%	–
NC(=O)c1nsc(C(=O)N(Cc2ccc(F)cc2)C(C(=O)NCC2CCCO2)c2ccc(F)cc2)c1N (configuration not stated)	–	inconclusive: -100%	–
CC(C)Cn1nc(C(=O)Nc2cccc(C(=O)NC3CC3)c2)c2ccccc2c1=O	–	inconclusive: -38.5%	–
CC(NC(=O)C1CCCO1)c1ccccc1 (configuration not stated)	–	inconclusive: -6.91%	–
Cc1nnc(NC(=O)c2cccc(S(=O)(=O)N3CC(c4ccccc4)CC3=O)c2)s1 (configuration not stated)	–	inconclusive: -30.1%	–
O=c1[nH][nH]c(C(F)(F)F)c1C=NCc1cccs1	–	inconclusive: -25.5%	–
Cc1ccc(S(=O)(=O)NC(=O)Nc2ccc(Cl)cn2)cc1	–	inconclusive: 9.24%	–
O=C(O)C1C2CCC(C2)C1C(=O)NCCc1ccccc1 (configuration not stated)	–	inconclusive: 0.65%	–
C#CCOc1c(Cl)cc(/C=N/O)cc1OC	–	inconclusive: 19.7%	–
COc1cccc(CN(C)CC(=O)Nc2cc3oc4ccccc4c3cc2OC)c1	–	inconclusive: -20.4%	–
CC1CCN(CCCCOc2ccc(Cl)cc2)CC1	–	inconclusive: -16.8%	–
Cc1ccc(C)c(NC(=S)Nc2ncccc2C)c1	–	inconclusive: 16.8%	–
Cc1ccc(C2=NN(C(=O)CCC(=O)O)C(c3ccc4c(c3)OCO4)C2)cc1 (configuration not stated)	–	inconclusive: -24.6%	–
COc1ccc(-c2n[nH]c(=S)n2N)c(OC)c1	–	–	inactive [at 46.1 µM]
COc1ccc(S(=O)(=O)n2ccc(C)n2)cc1C	inconclusive: 0.13 µM [activator, full curve, poor fit]	–	–
Cc1cc(C)n2cc(CSC3=NCCS3)nc2n1	–	inconclusive: 4.07%	–
CCN1/C(=C\C=C2\C(=O)N(c3ccccc3)C(=S)N2C)Sc2ccccc21	–	inconclusive: -7.7%	–
Cc1nc(=O)c(-c2ccccc2)c(C)n1-c1ccccc1C(=O)O	inconclusive: 0.411 µM [falling, full curve, poor fit]	–	–
O=C(NCCc1ccccn1)c1cccc(S(=O)(=O)N2CCCCCC2)c1	–	inconclusive: 12.4%	–
O=C(Cc1ccccc1)Nc1cccc(S(=O)(=O)N2CCCCCC2)c1	inconclusive: 6.51 µM [activator, single point]	–	–
CC(C)(CO)NCC(O)Cn1cc(C=O)c2ccccc21 (configuration not stated)	–	inconclusive: 9.09%	–
COc1cc(/C=C2\SC(=Nc3ccc(N4CCOCC4)cc3)N(C)C2=O)ccc1OC(C)C(=O)O (configuration not stated)	–	inconclusive: 254%	–
CCC(C)NC(=O)CN1C(=O)NC2(CCOc3ccccc32)C1=O (configuration not stated)	inconclusive: 6.51 µM [falling, single point]	–	–
CCCCOc1ccc(C(=O)NCC(=O)NCC(c2cccs2)N2CCOCC2)cc1 (configuration not stated)	inconclusive: 29.1 µM [activator, single point]	–	–
CCOc1ccc2ccccc2c1CNCCN1CCOCC1	–	inconclusive: -0.0003%	–

Compound	Potency	lipid storage change, negative = inhibition	outcome
CCCCN(CC(=O)NC1CCCC1)C(=O)C(=O)Nc1ccc2c(c1)OCCO2	–	inconclusive: -100%	–
O=C(c1ccncc1)N1CCN(C2CCC(c3ccccc3)CC2)CC1 (configuration not stated)	–	inconclusive: -0.274%	–
Cc1ccc(S(=O)(=O)N2CCOCC2)cc1C(=O)OCC(=O)c1ccc[nH]1	inconclusive: 18.4 µM [activator, partial curve, poor fit]	–	–
NC(=O)CC(NC(=O)c1ccc(Br)cc1)c1ccc(N2CCN(c3ccccc3)CC2)c([N+](=O)[O-])c1 (configuration not stated)	inconclusive: 29.1 µM [falling, single point]	–	–
O=C(CSCc1ccc(Cl)cc1)Nc1nccs1	inconclusive: 20.6 µM [rising, partial curve]	–	–
COc1ccc(OC)c(NC(=O)COc2ccc(S(=O)(=O)NC(C)C)cc2)c1	–	inconclusive: 1.52%	–
O=[N+]([O-])c1ccccc1/C=C/C=N/n1c(-c2ccccc2F)n[nH]c1=S	–	inconclusive: 44.8%	–
COc1ccc2[nH]c3c(c2c1)CCN1C(=O)N([C@@H](C)C(=O)NC2CCCCC2C)C(=O)[C@]31C (some centres not stated)	inconclusive: 6.51 µM [falling, full curve, poor fit]	–	–
O=C(/C=N/O)NCC1CCNCC1	–	inconclusive: -3.55%	–
Cc1ccc(S(=O)(=O)N2CCC3(CC2)OCCO3)s1	–	inconclusive: 19.1%	–
CC(C)C[C@H](NC(=O)Nc1cccc(Br)c1)C(=O)O	–	inconclusive: -13.6%	–
Cc1ccc(Nc2nc(N)c(C#N)c(CC#N)c2C#N)cc1	inconclusive: 6.51 µM [cytotoxic, single point]	–	–
COc1ccccc1/C=C1\SC(=O)N(CCC(=O)NNC(=O)c2ccccc2Cl)C1=O	–	inconclusive: 36.5%	–
Cc1ccc(C(=O)N2CC(=O)Nc3ccc(F)cc3C2c2ccc(F)cc2)cc1[N+](=O)[O-] (configuration not stated)	–	inconclusive: 7.91%	–
CC(C)NC(=S)Nc1ccc(Oc2ccccc2)cc1	–	inconclusive: -17.7%	–
COCC1CCN(C(=O)C2CCC(=O)N(CC3CCCCC3)C2)CC1 (configuration not stated)	inconclusive: 6.51 µM [falling, single point]	–	–
CCC1CCCCN1CCCNC(=O)c1cn(CC)c2ccc(S(=O)(=O)N3CCc4ccccc4C3)cc2c1=O (configuration not stated)	–	inconclusive: 3.28%	–
Cc1ccccc1NC(=O)c1cnn(-c2ccccc2)c1NC(=O)c1ccco1	inconclusive: 0.116 µM [activator, full curve, poor fit]	–	–
Cc1ccc(S(=O)(=O)Cc2ccc([N+](=O)[O-])cc2)cc1	–	inactive: -23.4%	–
CC1=NN(c2ccccc2)C(=O)C1/C=C1/NC(=S)NC1=O (configuration not stated)	–	inconclusive: -15.6%	–
COC(=O)CN1C(=O)N/C(=C/c2cc(Cl)c(OC)c(OC)c2)C1=O	inconclusive: 3.66 µM [falling, partial curve]	–	–
Cc1[nH]c2ccc(C(=O)OCC(=O)Nc3cccc(S(N)(=O)=O)c3)cc2c1C	inconclusive: 0.366 µM [falling, full curve]	–	–
Cc1ccccc1-c1nnc(SCc2ccccc2F)o1	–	inconclusive: -1.56%	–
CCN(CC)CCn1c(NS(=O)(=O)c2ccc(C)cc2)nc2ccccc21	–	inconclusive: 36.6%	–
O=C(NCCCN1CCc2ccccc2C1)Nc1ccc(Cl)cc1	inconclusive: 0.651 µM [falling, full curve]	–	–
Cc1cnc(C(=O)Nc2ccc(S(=O)(=O)NCC(C)C)cc2)cn1	inconclusive: 0.0116 µM [falling, full curve, poor fit]	–	–

Compound	Potency	lipid storage change, negative = inhibition	outcome
Cc1ccc(C(=O)OCC(=O)c2cc(C)n(CC3CCCO3)c2C)cc1 (configuration not stated)	inconclusive: 6.51 µM [cytotoxic, single point]	–	–
CC(C)n1nc(C(=O)Nc2ccc3c(c2)OCO3)c2ccccc2c1=O	–	inconclusive: 8.58%	–
Cc1[nH]c2ccccc2c1Cc1n[nH]c(=S)o1	–	inconclusive: -3.71%	–
CCCCCn1c(N2CCN(Cc3ccccc3)CC2)nc2c1c(=O)[nH]c(=O)n2C	inconclusive: 18.4 µM [activator, single point]	–	–
Cc1ccc(CSc2ccc(S(=O)(=O)N3CCCC3)cn2)cc1	–	inconclusive: -19.6%	–
O=C(CCCCn1c(=S)[nH]c2ccsc2c1=O)NCc1ccc2c(c1)OCO2	–	inconclusive: -5.84%	–
COc1ccc(S(=O)(=O)NC(C)C(=O)NCc2ccncc2)cc1C (configuration not stated)	inconclusive: 0.291 µM [activator, full curve, poor fit]	–	–
Cc1ccc2c(c1)c1c(n2CC(O)CN2C(=O)CNC2=O)C(=O)CCC1 (configuration not stated)	–	inconclusive: 67.8%	–
COc1cccc([C@@H]2CC=C(C(=O)O)[C@H](c3ccc(F)cc3)N2S(=O)(=O)c2ccc(C)cc2)c1	inconclusive: 16.4 µM [activator, single point]	–	–
COc1ccc(S(=O)(=O)N2CCOCC2)cc1C(=O)N(C)CCOc1ccc(Cl)cc1	–	inconclusive: 14.2%	–
O=C(c1noc2c1CCCC2)N1CCN(Cc2ccccc2)CC1	inconclusive: 0.146 µM [activator, full curve, poor fit]	–	–
CC1CCCC(C)N1C(=O)c1cc(-c2ccc(Cl)c(Cl)c2)on1 (configuration not stated)	–	inconclusive: 19.5%	–
O=C(NCCCN1CCCC1=O)c1ccc(NS(=O)(=O)c2ccc(F)cc2)cc1	–	inconclusive: -10.2%	–
COc1ccccc1OCCCCOc1ccccc1C(C)=O	–	inconclusive: 17.5%	–
O=C(c1ccc2c(c1)OCO2)N1CCN(c2ccccc2)CC1	–	inconclusive: 23.1%	–
O=C1CCC(C(=O)NCCN2C(=O)S/C(=C\c3cccnc3)C2=O)=NN1	–	inconclusive: 43.2%	–
O=C(O)c1cc2cc(F)ccc2[nH]1	–	inconclusive: 0.0762%	–
Cc1ccccc1-n1c(SCC(=O)N2CCN(c3ccccn3)CC2)nnc1N1CCOCC1	–	inconclusive: 32.1%	–
CC1CCCC(C)N1C(=O)c1ccc2c(c1)S(=O)(=O)c1ccccc1C2=O (configuration not stated)	–	inconclusive: -85%	–
O=C(COC(=O)CCCOc1ccc(Cl)cc1Cl)NCc1ccc(F)cc1	–	inconclusive: 19.8%	–
Oc1c(N=NC(=S)Nc2ccccc2F)c2ccccc2n1Cc1ccccc1	–	inconclusive: -19.6%	–
CC(=O)Nc1ccc(S(=O)(=O)NC2CC3CCC2C3)cc1 (configuration not stated)	–	inconclusive: 24.8%	–
COc1cc(NC(=O)C(C)C)ccc1NC(=O)c1cc2ccccc2o1	inconclusive: 29.1 µM [falling, single point]	–	–
CCCC(O)(CCN1CCCCC1)c1ccc(OCC)cc1 (configuration not stated)	–	inconclusive: -0.157% [at 9.22 µM]	–
CN(CC(=O)Nc1ccc(F)c(F)c1F)C(=O)C1CSC2(C)CCC(=O)N12 (configuration not stated)	inconclusive: 0.0231 µM [falling, full curve, poor fit]	–	–

3 compounds from above, ordered by SMILES length, falling:
Compound	Potency	lipid storage change, negative = inhibition	outcome
O=C(CCCCn1c(=S)[nH]c2ccsc2c1=O)NCc1ccc2c(c1)OCO2	–	inconclusive: -5.84%	–
COC(=O)CN1C(=O)N/C(=C/c2cc(Cl)c(OC)c(OC)c2)C1=O	inconclusive: 3.66 µM [falling, partial curve]	–	–
O=C(/C=N/O)NCC1CCNCC1	–	inconclusive: -3.55%	–

From PubChem BioAssay AID2685 (National Center for Advancing Translational Sciences (NCATS), 2010)
